From article PMC8864472

By UniProt entry, the sequences of proteins in these tests, tags left out. Residues count along the entry.
UniProt Q92544, residues 24-642: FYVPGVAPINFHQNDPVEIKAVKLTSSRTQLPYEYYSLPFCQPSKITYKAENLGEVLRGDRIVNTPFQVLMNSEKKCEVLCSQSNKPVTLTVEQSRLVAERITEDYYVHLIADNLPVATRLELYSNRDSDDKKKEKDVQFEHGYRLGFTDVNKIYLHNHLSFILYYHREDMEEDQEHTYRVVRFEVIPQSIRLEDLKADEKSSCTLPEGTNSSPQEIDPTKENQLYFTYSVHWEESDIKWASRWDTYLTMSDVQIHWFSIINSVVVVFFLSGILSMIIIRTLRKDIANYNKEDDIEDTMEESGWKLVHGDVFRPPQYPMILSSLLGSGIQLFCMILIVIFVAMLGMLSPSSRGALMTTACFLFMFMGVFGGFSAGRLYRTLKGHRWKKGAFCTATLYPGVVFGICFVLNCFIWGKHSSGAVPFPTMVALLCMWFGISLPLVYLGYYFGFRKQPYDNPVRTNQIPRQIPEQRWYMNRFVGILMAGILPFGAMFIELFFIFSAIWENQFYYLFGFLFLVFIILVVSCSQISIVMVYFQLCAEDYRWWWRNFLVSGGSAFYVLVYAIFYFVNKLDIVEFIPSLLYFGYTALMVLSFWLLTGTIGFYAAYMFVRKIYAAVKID
UniProt Q99805, residues 29-663: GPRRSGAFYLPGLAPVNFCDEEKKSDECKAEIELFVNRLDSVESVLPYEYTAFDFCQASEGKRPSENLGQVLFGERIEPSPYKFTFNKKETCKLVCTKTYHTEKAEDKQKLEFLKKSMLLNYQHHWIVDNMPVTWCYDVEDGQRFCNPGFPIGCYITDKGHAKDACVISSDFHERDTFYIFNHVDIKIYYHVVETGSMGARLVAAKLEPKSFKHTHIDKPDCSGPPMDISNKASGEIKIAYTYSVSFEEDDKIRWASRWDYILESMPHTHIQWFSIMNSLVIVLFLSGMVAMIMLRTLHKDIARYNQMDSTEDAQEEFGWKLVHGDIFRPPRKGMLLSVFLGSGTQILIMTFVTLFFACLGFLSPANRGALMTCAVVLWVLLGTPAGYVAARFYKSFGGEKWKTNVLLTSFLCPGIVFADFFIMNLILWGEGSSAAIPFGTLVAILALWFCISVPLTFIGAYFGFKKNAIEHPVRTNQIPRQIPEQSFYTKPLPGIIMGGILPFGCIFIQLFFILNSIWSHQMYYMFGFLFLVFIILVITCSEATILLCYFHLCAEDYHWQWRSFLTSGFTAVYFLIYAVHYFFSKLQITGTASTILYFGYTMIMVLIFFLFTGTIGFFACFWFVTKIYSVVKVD
UniProt P30101, residues 25-505: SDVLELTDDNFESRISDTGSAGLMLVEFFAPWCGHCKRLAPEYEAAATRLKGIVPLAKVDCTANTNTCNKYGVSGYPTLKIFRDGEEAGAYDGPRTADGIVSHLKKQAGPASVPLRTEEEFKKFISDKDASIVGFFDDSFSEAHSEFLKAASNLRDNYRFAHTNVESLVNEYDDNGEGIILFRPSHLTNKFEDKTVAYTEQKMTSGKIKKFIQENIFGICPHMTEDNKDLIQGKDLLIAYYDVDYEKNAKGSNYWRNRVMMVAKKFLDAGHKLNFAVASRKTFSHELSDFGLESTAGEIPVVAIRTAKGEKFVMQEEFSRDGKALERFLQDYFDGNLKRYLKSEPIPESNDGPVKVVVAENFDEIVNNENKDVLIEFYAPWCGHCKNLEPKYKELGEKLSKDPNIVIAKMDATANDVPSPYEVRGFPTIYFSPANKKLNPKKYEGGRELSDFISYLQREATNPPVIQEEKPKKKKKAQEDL
UniProt P11021, residues 19-654: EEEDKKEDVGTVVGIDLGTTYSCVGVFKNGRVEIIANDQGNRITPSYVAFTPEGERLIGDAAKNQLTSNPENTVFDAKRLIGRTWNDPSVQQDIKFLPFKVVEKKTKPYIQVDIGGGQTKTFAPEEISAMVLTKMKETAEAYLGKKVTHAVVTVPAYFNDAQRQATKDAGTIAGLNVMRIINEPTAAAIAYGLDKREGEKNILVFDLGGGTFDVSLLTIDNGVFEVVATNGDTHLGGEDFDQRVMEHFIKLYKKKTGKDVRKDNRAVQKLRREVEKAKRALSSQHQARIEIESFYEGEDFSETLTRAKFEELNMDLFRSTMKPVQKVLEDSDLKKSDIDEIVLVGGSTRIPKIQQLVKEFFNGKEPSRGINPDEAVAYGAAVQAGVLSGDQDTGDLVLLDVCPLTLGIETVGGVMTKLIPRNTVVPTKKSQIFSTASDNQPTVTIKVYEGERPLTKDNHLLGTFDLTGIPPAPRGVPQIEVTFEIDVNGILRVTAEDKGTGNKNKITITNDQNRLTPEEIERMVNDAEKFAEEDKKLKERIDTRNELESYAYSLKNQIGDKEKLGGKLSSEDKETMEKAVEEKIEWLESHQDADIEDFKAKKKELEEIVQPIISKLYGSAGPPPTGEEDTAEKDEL
UniProt Q8IY17: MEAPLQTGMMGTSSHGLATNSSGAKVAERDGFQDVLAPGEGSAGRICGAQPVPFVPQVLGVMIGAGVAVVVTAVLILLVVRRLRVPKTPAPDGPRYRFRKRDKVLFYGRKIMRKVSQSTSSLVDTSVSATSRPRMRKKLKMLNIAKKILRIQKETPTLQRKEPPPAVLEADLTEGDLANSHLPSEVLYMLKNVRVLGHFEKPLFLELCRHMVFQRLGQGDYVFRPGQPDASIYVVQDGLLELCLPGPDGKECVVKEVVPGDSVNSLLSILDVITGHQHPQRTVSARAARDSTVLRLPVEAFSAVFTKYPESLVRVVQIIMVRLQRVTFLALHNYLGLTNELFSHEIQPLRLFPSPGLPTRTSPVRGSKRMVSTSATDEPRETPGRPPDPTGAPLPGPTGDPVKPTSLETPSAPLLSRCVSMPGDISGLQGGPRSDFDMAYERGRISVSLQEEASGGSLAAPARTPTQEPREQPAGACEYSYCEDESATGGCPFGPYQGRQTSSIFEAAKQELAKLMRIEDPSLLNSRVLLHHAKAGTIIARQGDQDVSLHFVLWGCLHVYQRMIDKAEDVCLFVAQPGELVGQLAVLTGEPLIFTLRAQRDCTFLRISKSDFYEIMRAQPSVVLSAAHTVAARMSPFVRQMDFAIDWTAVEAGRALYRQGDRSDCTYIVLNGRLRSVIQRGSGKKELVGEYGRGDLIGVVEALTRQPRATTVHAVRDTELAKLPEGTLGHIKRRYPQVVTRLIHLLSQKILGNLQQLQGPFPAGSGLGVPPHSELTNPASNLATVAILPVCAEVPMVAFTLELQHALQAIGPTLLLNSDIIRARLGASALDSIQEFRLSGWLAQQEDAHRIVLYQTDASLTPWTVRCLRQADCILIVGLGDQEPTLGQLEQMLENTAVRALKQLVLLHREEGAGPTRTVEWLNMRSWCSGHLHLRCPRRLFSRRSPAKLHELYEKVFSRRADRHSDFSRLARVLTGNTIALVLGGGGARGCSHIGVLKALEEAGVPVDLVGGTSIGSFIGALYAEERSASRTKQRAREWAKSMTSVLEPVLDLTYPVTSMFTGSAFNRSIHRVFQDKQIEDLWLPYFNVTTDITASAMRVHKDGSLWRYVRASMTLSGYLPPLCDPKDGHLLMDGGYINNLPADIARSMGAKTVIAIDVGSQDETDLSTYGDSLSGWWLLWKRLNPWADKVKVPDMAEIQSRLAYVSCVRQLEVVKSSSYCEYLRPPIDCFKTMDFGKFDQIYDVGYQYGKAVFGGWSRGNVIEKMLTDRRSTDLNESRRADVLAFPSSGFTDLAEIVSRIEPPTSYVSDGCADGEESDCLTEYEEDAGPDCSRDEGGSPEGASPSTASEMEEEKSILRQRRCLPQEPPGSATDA
UniProt O15321, residues 28-606: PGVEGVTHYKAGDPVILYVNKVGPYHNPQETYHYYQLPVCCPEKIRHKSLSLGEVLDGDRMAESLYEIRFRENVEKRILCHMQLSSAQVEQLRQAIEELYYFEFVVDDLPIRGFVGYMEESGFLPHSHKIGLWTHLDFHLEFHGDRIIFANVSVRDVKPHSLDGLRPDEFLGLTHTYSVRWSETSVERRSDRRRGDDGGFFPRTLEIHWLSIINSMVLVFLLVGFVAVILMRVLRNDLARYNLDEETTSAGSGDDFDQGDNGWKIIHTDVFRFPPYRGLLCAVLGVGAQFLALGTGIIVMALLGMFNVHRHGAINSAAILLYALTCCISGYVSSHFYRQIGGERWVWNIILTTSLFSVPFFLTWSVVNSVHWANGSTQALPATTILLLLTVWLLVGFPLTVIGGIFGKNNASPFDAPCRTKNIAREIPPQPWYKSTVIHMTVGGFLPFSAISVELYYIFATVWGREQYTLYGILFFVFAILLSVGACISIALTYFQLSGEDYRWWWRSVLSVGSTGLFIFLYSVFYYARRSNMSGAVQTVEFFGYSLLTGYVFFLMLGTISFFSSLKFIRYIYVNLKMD

Assays:
Experiment in all cases: affinity purification with mass spectrometry; TAP-MS: C-terminal SFB-tagged PLD bait from stable HEK293A cells, lysed in NETN buffer (100 mM NaCl, 20 mM Tris-HCl pH 8.0, 0.5 mM EDTA, 0.5% Nonidet P-40), streptavidin beads, biotin elution, S protein beads, 4 °C; HCIP: SAINT score at least 0.8 and raw spectra count at least 2
PLD3 (human) = target: T1, PLD3 (human) (UniProt Q8IV08)
T1 sequence: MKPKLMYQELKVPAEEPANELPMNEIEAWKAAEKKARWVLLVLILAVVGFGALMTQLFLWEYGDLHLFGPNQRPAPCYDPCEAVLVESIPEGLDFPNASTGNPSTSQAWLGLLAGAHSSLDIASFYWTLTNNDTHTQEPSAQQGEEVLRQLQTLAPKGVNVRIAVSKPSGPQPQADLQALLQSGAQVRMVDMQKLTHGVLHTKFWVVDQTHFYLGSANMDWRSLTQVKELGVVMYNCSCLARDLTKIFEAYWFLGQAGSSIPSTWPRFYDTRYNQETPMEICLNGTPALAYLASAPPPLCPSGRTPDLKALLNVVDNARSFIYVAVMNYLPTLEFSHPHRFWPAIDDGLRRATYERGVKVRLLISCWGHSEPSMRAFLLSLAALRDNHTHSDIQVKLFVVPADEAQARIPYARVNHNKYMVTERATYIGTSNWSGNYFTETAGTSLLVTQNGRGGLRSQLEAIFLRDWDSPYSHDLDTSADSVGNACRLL

PLD4 (human) = target: T2, PLD4 (human) (UniProt Q96BZ4)
T2 sequence: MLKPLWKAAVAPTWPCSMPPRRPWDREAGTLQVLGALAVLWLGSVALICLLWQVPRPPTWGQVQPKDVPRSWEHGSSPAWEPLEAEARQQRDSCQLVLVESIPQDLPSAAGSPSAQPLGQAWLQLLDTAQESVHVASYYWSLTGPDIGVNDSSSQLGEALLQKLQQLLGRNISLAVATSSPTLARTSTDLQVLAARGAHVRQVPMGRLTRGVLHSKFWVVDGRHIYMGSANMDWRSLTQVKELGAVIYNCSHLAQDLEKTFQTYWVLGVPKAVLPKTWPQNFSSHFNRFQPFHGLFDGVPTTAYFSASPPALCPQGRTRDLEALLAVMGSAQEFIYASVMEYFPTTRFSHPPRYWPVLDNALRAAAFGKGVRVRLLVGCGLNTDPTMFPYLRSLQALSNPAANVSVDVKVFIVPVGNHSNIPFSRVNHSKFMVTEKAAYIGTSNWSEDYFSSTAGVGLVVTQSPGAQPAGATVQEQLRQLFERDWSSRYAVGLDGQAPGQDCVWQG

PLD6 (human) = target: T3, PLD6 (human) (UniProt Q8N2A8)
T3 sequence: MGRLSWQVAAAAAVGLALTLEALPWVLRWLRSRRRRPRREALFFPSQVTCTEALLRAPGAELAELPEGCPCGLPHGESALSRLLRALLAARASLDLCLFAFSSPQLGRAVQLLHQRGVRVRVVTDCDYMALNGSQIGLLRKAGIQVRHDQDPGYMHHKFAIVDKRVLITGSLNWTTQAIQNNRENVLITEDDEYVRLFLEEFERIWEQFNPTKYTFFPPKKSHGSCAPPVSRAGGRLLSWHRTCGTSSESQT

| Molecule | binding (PLD3 (human)) | binding (PLD4 (human)) | binding (PLD6 (human)) |
| --- | --- | --- | --- |
| TM9SF4 (from UniProt Q92544 24-642) | binds | binds | – |
| TM9SF2 (from UniProt Q99805 29-663) | binds | binds | – |
| PDIA3 (from UniProt P30101 25-505) | binds | binds | – |
| HSPA5 (from UniProt P11021 19-654) | – | – | binds |
| PNPLA6 (from UniProt Q8IY17 1-1375) | binds | – | – |
| TM9SF1 (from UniProt O15321 28-606) | binds | binds | – |
| PDIA4 (protein, UniProt P13667 21-645) VAGAEGPDEDSSNRENAIEDEEEEEEEDDDEEEDDLEVKEENGVLVLNDANFDNFVADKDTVLLEFYAPWCGHCKQFAPEYEKIANILKDKDPPIPVAKIDATSASVLASRFDVSGYPTIKILKKGQAVDYEGSRTQEEIVAKVREVSQPDWTPPPEVTLVLTKENFDEVVNDADIILVEFYAPWCGHCKKLAPEYEKAAKELSKRSPPIPLAKVDATAETDLAKRFDVSGYPTLKIFRKGRPYDYNGPREKYGIVDYMIEQSGPPSKEILTLKQVQEFLKDGDDVIIIGVFKGESDPAYQQYQDAANNLREDYKFHHTFSTEIAKFLKVSQGQLVVMQPEKFQSKYEPRSHMMDVQGSTQDSAIKDFVLKYALPLVGHRKVSNDAKRYTRRPLVVVYYSVDFSFDYRAATQFWRSKVLEVAKDFPEYTFAIADEEDYAGEVKDLGLSESGEDVNAAILDESGKKFAMEPEEFDSDTLREFVTAFKKGKLKPVIKSQPVPKNNKGPVKVVVGKTFDSIVMDPKKDVLIEFYAPWCGHCKQLEPVYNSLAKKYKGQKGLVIAKMDATANDVPSDRYKVEGFPTIYFAPSGDKKNPVKFEGGDRDLEHLSKFIEEHATKLSRTKEEL | binds | binds | – |
| TM9SF3 (protein, UniProt Q9HD45 29-589) DEHEHTYQDKEEVVLWMNTVGPYHNRQETYKYFSLPFCVGSKKSISHYHETLGEALQGVELEFSGLDIKFKDDVMPATYCEIDLDKEKRDAFVYAIKNHYWYQMYIDDLPIWGIVGEADENGEDYYLWTYKKLEIGFNGNRIVDVNLTSEGKVKLVPNTKIQMSYSVKWKKSDVKFEDRFDKYLDPSFFQHRIHWFSIFNSFMMVIFLVGLVSMILMRTLRKDYARYSKEEEMDDMDRDLGDEYGWKQVHGDVFRPSSHPLIFSSLIGSGCQIFAVSLIVIIVAMIEDLYTERGSMLSTAIFVYAATSPVNGYFGGSLYARQGGRRWIKQMFIGAFLIPAMVCGTAFFINFIAIYYHASRAIPFGTMVAVCCICFFVILPLNLVGTILGRNLSGQPNFPCRVNAVPRPIPEKKWFMEPAVIVCLGGILPFGSIFIEMYFIFTSFWAYKIYYVYGFMMLVLVILCIVTVCVTIVCTYFLLNAEDYRWQWTSFLSAASTAIYVYMYSFYYYFFKTKMYGLFQTSFYFGYMAVFSTALGIMCGAIGYMGTSAFVRKIYTNVKID | binds | binds | – |
| PDIA6 (protein, UniProt Q15084 20-440) LYSSSDDVIELTPSNFNREVIQSDSLWLVEFYAPWCGHCQRLTPEWKKAATALKDVVKVGAVDADKHHSLGGQYGVQGFPTIKIFGSNKNRPEDYQGGRTGEAIVDAALSALRQLVKDRLGGRSGGYSSGKQGRSDSSSKKDVIELTDDSFDKNVLDSEDVWMVEFYAPWCGHCKNLEPEWAAAASEVKEQTKGKVKLAAVDATVNQVLASRYGIRGFPTIKIFQKGESPVDYDGGRTRSDIVSRALDLFSDNAPPPELLEIINEDIAKRTCEEHQLCVVAVLPHILDTGAAGRNSYLEVLLKLADKYKKKMWGWLWTEAGAQSELETALGIGGFGYPAMAAINARKMKFALLKGSFSEQGINEFLRELSFGRGSTAPVGGGAFPTIVEREPWDGRDGELPVEDDIDLSDVELDDLGKDEL | binds | binds | – |
| PLD4 (protein, UniProt Q96BZ4 1-506) MLKPLWKAAVAPTWPCSMPPRRPWDREAGTLQVLGALAVLWLGSVALICLLWQVPRPPTWGQVQPKDVPRSWEHGSSPAWEPLEAEARQQRDSCQLVLVESIPQDLPSAAGSPSAQPLGQAWLQLLDTAQESVHVASYYWSLTGPDIGVNDSSSQLGEALLQKLQQLLGRNISLAVATSSPTLARTSTDLQVLAARGAHVRQVPMGRLTRGVLHSKFWVVDGRHIYMGSANMDWRSLTQVKELGAVIYNCSHLAQDLEKTFQTYWVLGVPKAVLPKTWPQNFSSHFNRFQPFHGLFDGVPTTAYFSASPPALCPQGRTRDLEALLAVMGSAQEFIYASVMEYFPTTRFSHPPRYWPVLDNALRAAAFGKGVRVRLLVGCGLNTDPTMFPYLRSLQALSNPAANVSVDVKVFIVPVGNHSNIPFSRVNHSKFMVTEKAAYIGTSNWSEDYFSSTAGVGLVVTQSPGAQPAGATVQEQLRQLFERDWSSRYAVGLDGQAPGQDCVWQG | binds | – | – |
| PLD3 (protein, UniProt Q8IV08 1-490) MKPKLMYQELKVPAEEPANELPMNEIEAWKAAEKKARWVLLVLILAVVGFGALMTQLFLWEYGDLHLFGPNQRPAPCYDPCEAVLVESIPEGLDFPNASTGNPSTSQAWLGLLAGAHSSLDIASFYWTLTNNDTHTQEPSAQQGEEVLRQLQTLAPKGVNVRIAVSKPSGPQPQADLQALLQSGAQVRMVDMQKLTHGVLHTKFWVVDQTHFYLGSANMDWRSLTQVKELGVVMYNCSCLARDLTKIFEAYWFLGQAGSSIPSTWPRFYDTRYNQETPMEICLNGTPALAYLASAPPPLCPSGRTPDLKALLNVVDNARSFIYVAVMNYLPTLEFSHPHRFWPAIDDGLRRATYERGVKVRLLISCWGHSEPSMRAFLLSLAALRDNHTHSDIQVKLFVVPADEAQARIPYARVNHNKYMVTERATYIGTSNWSGNYFTETAGTSLLVTQNGRGGLRSQLEAIFLRDWDSPYSHDLDTSADSVGNACRLL | – | binds | – |
| TMX3 (protein, UniProt Q96JJ7 25-454) KGFVEDLDESFKENRNDDIWLVDFYAPWCGHCKKLEPIWNEVGLEMKSIGSPVKVGKMDATSYSSIASEFGVRGYPTIKLLKGDLAYNYRGPRTKDDIIEFAHRVSGALIRPLPSQQMFEHMQKRHRVFFVYVGGESPLKEKYIDAASELIVYTYFFSASEEVVPEYVTLKEMPAVLVFKDETYFVYDEYEDGDLSSWINRERFQNYLAMDGFLLYELGDTGKLVALAVIDEKNTSVEHTRLKSIIQEVARDYRDLFHRDFQFGHMDGNDYINTLLMDELTVPTVVVLNTSNQQYFLLDRQIKNVEDMVQFINNILDGTVEAQGGDSILQRLKRIVFDAKSTIVSIFKSSPLMGCFLFGLPLGVISIMCYGIYTADTDGGYIEERYEVSKSENENQEQIEESKEQQEPSSGGSVVPTVQEPKDVLEKKKD | – | binds | – |
| ERLEC1 (protein, UniProt Q96DZ1 34-483) LPQLSDDIPFRVNWPGTEFSLPTTGVLYKEDNYVIMTTAHKEKYKCILPLVTSGDEEEEKDYKGPNPRELLEPLFKQSSCSYRIESYWTYEVCHGKHIRQYHEEKETGQKINIHEYYLGNMLAKNLLFEKEREAEEKEKSNEIPTKNIEGQMTPYYPVGMGNGTPCSLKQNRPRSSTVMYICHPESKHEILSVAEVTTCEYEVVILTPLLCSHPKYRFRASPVNDIFCQSLPGSPFKPLTLRQLEQQEEILRVPFRRNKEEDLQSTKEERFPAIHKSIAIGSQPVLTVGTTHISKLTDDQLIKEFLSGSYCFRGGVGWWKYEFCYGKHVHQYHEDKDSGKTSVVVGTWNQEEHIEWAKKNTARAYHLQDDGTQTVRMVSHFYGNGDICDITDKPRQVTVKLKCKESDSPHAVTVYMLEPHSCQYILGVESPVICKILDTADENGLLSLPN | – | – | binds |
| ACOT9 (protein, UniProt Q9Y305 22-439) LTQGPQNPKKQGIFHIHEVRDKLREIVGASTNWRDHVKAMEERKLLHSFLAKSQDGLPPRRMKDSYIEVLLPLGSEPELREKYLTVQNTVRFGRILEDLDSLGVLICYMHNKIHSAKMSPLSIVTALVDKIDMCKKSLSPEQDIKFSGHVSWVGKTSMEVKMQMFQLHGDEFCPVLDATFVMVARDSENKGPAFVNPLIPESPEEEELFRQGELNKGRRIAFSSTSLLKMAPSAEERTTIHEMFLSTLDPKTISFRSRVLPSNAVWMENSKLKSLEICHPQERNIFNRIFGGFLMRKAYELAWATACSFGGSRPFVVAVDDIMFQKPVEVGSLLFLSSQVCFTQNNYIQVRVHSEVASLQEKQHTTTNVFHFTFMSEKEVPLVFPKTYGESMLYLDGQRHFNSMSGPATLRKDYLVEP | – | – | binds |

No constants are given. Whether binding was seen depends on the method and setting. In cells and extracts the contact can be indirect. These calls come from enrichment with a bait or labelling near it, and not all partners need be listed.
